# Library screen at single concentrations

Sequences of proteins named here, by UniProt entry; tags and fusion partners are left off. Residues count along the entry.
UniProt Q8IDJ8, 1-583: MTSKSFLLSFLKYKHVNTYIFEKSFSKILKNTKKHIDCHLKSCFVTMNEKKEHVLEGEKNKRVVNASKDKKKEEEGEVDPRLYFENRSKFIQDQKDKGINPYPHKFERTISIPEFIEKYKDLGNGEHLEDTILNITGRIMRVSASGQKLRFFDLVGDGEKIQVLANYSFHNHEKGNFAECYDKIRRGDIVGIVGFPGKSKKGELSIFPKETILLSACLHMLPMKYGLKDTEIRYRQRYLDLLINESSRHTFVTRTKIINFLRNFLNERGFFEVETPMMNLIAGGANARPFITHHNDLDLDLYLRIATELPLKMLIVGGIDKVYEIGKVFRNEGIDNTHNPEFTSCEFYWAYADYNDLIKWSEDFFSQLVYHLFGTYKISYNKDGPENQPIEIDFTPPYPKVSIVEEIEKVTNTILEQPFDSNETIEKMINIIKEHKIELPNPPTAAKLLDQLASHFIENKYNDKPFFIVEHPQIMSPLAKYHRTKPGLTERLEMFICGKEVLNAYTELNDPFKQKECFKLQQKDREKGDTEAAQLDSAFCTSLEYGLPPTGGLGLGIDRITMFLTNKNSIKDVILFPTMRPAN

A: 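Assay of Toxoplasma gondii numbers, read through their beta-galactosidase reporter with a colour substrate. Tested at 10 µM. The record gives no direction; the compounds picked for IC50 retests had high values, so higher reads as fewer parasites. Of about 67,000 compounds tested this way, about 260 (0.38%) reached 50% or more in at least one test.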
B: 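Whole-parasite assay of Trypanosoma brucei over 72 hours; the read-out is not stated. Concentration: 30 µM. Higher reads as stronger inhibition (inferred: compounds with an IC50 in retests scored well above the rest). Values scatter widely below zero; nearly all retest evidence comes from the higher of the two concentrations used. Size under these conditions: about 64,000 compounds, about 940 of them at 50% or above in at least one test.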
C: 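Cell assay of Leishmania donovani living inside macrophages; the read-out is not stated. Concentration: 30 µM. Higher reads as stronger inhibition (inferred: compounds with an IC50 in retests scored well above the rest). About 69,000 compounds were tested under these conditions; 1.5% (about 1,000) showed 50% or more at least once.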
D: 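Lysine-tRNA ligase, Plasmodium falciparum 3D7 (UniProt Q8IDJ8). Enzyme assay of the cytosolic lysyl-tRNA synthetase in 384-well plates, read by luminescence. Concentration: 30 µM. Direction is inferred from only a few compounds that gave an IC50; most scored high, so higher reads as stronger inhibition. About 69,000 compounds were tested under these conditions; 0.071% (about 49) showed 50% or more at least once.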

The filed quantity is “Percent Effect” (%). The record does not define 0% and 100%; most values in the screen are far below 50% and negative numbers occur (in some assays of this library far below -100). This is an unselected part of the compounds tested. A dash means the value is not listed here; it may have been measured.

Cc1noc(C[C@@H]2COC[C@H]3CN(S(C)(=O)=O)C[C@@H]23)n1 gave D: 0.1679%.
COC(=O)c1ccc2ccn(CC3CCCO3)c(=O)c2c1 (stereo unspecified) gave A: -2.408%; B: -63.25%; C: -7.446%; D: 12.9%.
COc1ncccc1NC(=O)N1CCOCC1C (stereo unspecified) gave A: -5.74%; B: -5.187%; C: 11.6%; D: 1.233%.
CN1CCC2(CCN(c3ncc(F)cn3)CC2)C1=O.O=C(O)C(F)(F)F gave A: -0.4787%; B: -66.31%; C: 22.66%.
Cc1cc(CNC(=O)c2ccc(F)c(COCC3CC3)c2)no1 gave A: 2.308%; B: -58.43%; C: -39.78%; D: 3.532%.
Cc1nn(C)c(C)c1C1CCCN1C(=O)CCNS(C)(=O)=O (stereo unspecified) gave A: -17.28%; C: 5.787%; D: 1.134%.
Cc1nn(C)c2cnn(CC(=O)NCc3ccccc3F)c12 gave A: 6.397%; B: -20.3%; C: -22.84%; D: 3.546%.
COCCN(Cc1ccoc1)C(=O)c1c(F)cccc1F gave A: -0.4297%; B: 1.811%; C: 7.517%; D: -0.5253%.
COc1cccc(Nc2nc(C3CCNCC3)c3sc(C)c(C)n23)c1.Cl gave A: -17.33%; B: 63.57%; C: 22.36%.
COCCC(=O)NCCn1nc(C2CCNC2)c2cccnc21.Cl (stereo unspecified) gave A: 13.06%; B: -11.01%; C: 0.844%.
CCc1nc(CC(=O)N2CCn3c(nnc3C(F)(F)F)C2)cs1 gave A: -15.95%; B: -19.06%; C: 23.2%; D: 0.3759%.
Cc1ccc(OCCN(C)Cc2ccc(S(=O)(=O)N(C)C)o2)cc1 gave A: 1.765%; B: -10.52%; C: 1.908%; D: -1.165%.
CC1COCCN1C(=O)c1ccc(=O)n(Cc2ccccc2)n1 (stereo unspecified) gave A: -9.638%; B: -30.13%; C: 0.08182%; D: 2.257%.
Cc1cc(=O)n2nc(Oc3cccc(I)c3)sc2n1 gave A: 19.99%; B: 99.1%; C: -27.63%; D: 9.552%.
Cc1ccc(S(=O)(=O)NC(=O)COc2cccc(C#N)c2)c(C)c1 gave A: -0.5882%; B: -13.73%; C: -19.42%; D: -0.1479%.
CC(C)N(CCCNC(=O)C1CC(=O)N(C)C1)S(C)(=O)=O (stereo unspecified) gave A: 7.447%; B: -14.17%; C: 28.06%; D: -6.183%.
CCn1cnnc1CNC(=O)NCC(C(C)C)N1CCOCC1 (stereo unspecified) gave A: -0.4725%; B: -12.9%; C: -15.53%; D: 3.947%.
O=C(CC1CCCCC1)NC1CCCc2nc(N3CCOCC3)ncc21 (stereo unspecified) gave A: -20.87%; B: 0.1952%; C: -21.1%; D: 2.42%.
O=C(O)C(F)(F)F.O=S(=O)(C1CC1)N1CCc2ncnc(-c3ccncc3)c2CC1 gave A: 3.181%; C: 37.37%.
O=C(CCn1ccc2ccc(Br)cc21)/N=c1\[nH]nc(C2CCCO2)s1 (stereo unspecified) gave B: -3.953%; C: -1.51%; D: 4.461%.

The last 2 entries again:

| structure | A | B | C | D |
|---|---|---|---|---|
| `O=C(O)C(F)(F)F.O=S(=O)(C1CC1)N1CCc2ncnc(-c3ccncc3)c2CC1` | 3.181 | - | 37.37 | - |
| `O=C(CCn1ccc2ccc(Br)cc21)/N=c1\[nH]nc(C2CCCO2)s1` (stereo unspecified) | - | -3.953 | -1.51 | 4.461 |

The values are deposited in ChEMBL (CHEMBL3988442, “University of Dundee, Small-Polar-MMV Screening Library” (2021)).